A short description of this data set: general procedure: Boc solid-phase peptide synthesis; TAMPAL resin (MBHA) for thioesters; Pam resin for test peptides; HBTU/DIEA (in situ neutralization). The conditions noted are these: whole synthesis, scale of the general procedure 0.25 mmol.

Consider Fmoc-D(Troc)YAKYAKL, for which the isolated yield was 15%.
With LYRAE(OFm)-thioester, the difficulty met entry is listed as “The OFm group was associated with the presence of multiple impurities”.

The record behind these values is patent US7566697B2 (Amylin Pharmaceuticals, Inc., priority 2002, dated 2009).
